Source: article PMC11730739
The exact form of at least one protein or probe is not confirmed. Weaker means in comparison with the reference protein, sequence or condition of that experiment.

Sequences of proteins named here, by UniProt entry; tags and fusion partners are left off. A change or cut given only in a name is not applied to a line headed by its entry.
UniProt P16220: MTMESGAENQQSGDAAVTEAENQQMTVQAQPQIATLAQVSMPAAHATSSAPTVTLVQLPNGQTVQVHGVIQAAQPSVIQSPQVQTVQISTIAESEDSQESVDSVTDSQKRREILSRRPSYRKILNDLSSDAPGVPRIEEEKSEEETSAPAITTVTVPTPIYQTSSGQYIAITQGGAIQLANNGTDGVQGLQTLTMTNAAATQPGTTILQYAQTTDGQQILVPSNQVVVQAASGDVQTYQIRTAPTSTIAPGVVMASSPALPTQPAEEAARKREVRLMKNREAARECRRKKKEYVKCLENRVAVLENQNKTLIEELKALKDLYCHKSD

Target: CREB (recombinant CREB, full-length) (human) (UniProt P16220)
Assay: EMSA
Conditions: 25 mM Tris pH 7.5, 200 mM NaCl, 5 mM MgCl2, 1 mM DTT, 5% glycerol, 0.05% Triton X-100, room temperature, 20 min, 4% native gel in 0.5x TBE, recombinant protein

AGAGATTGCCTGACGTCAGAGAGCTAG (double strand) [Cy3-CRE probe]
binding result (no MMPP, 2 nM probe, 2 ug CREB): binds | binding result (plus MMPP (melanin-like nanoparticles), dose-dependent reduction of binding): binds more weakly
